Out of some 400,000 compounds screened, about 5,500 (1.4%) were called active. Inconclusive means that the source gave no clear call. Such entries were picked first, then a sample of the others. The call rests on the fitted dose curve; in most records, active means well fitted cell-killing curve with a large enough effect; inconclusive means small, poorly fitted or top-dose-only effect, or effect the other way; inactive means flat fitted curve, though single readings scatter. A potency beside an inconclusive call is a rough fit, not a confirmed value.
assay: qHTS assay for MDR1-selective chemotherapeutics: Primary screen using the parental adenocarcinoma cell KB-3-1; conditions: KB-3-1 viability, CellTiter-Glo ATP luminescence, 72 h; activity change, negative = cytotoxic: at 46.1 µM (top of the series); further: nearly all actives have a fitted effect of over 60% in size
In short: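 KB-3-1 cells, DMEM (no phenol red) + 10% FBS; compound by pin transfer, 72 h, 37 °C. Readout: CellTiter-Glo luminescence after 10 min. Data normalized, curve-fitted.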
On the % scale 0 is the no-effect control and ±100 the full control effect; potency means the concentration at half of the fitted maximal effect.

Structure (SMILES)	Potency	activity change, negative = cytotoxic
O=C(N/N=C1\CCCc2c1[nH]c1ccc(Cl)cc21)c1ccncc1	inconclusive: 29.1 µM [cytotoxic, single point]	–
Cc1ccc(C2=CN(Cc3ccccc3)CCC2=O)cc1	–	inactive: -9.87%
C[C@@]12C(=O)N(c3cccc(F)c3)C(=O)N1[C@@H]1c3ccccc3OC[C@@H]1[C@H]2c1ccccc1	inconclusive: 29.1 µM [cytotoxic, single point]	–
c1ccc(-c2c[n+]3c(n2-c2ccccc2)CCC3)cc1	inconclusive: 29.1 µM [cytotoxic, single point]	–
COc1ccc(NC(=O)NCc2cccn2Cc2ccc(F)cc2)cc1OC	–	inactive: -8.8%
COc1cccc(NC(=O)N(Cc2cn(C)c3ccccc23)C2CCCCC2)c1	–	inactive: -11.4%
COc1ccc(S(=O)(=O)Nc2ccc3c(c2)C(=O)N([C@H](C)CO)C[C@H](C)[C@@H](CN(C)C(=O)Nc2ccc(C(F)(F)F)cc2)OCCCC[C@H](C)O3)cc1	inconclusive: 29.1 µM [cytotoxic, single point]	–
Clc1ccc(C2Nc3cccc4cccc(c34)N2)c(Cl)c1	inconclusive: 13 µM [cytotoxic, partial curve]	–
N#Cc1ccc(CN2CCN(C(=O)CC(NC(=O)c3ccccc3)c3ccccc3)CC2)cc1 (stereo not given)	–	inconclusive: 27.5%
Cc1cccc(C)c1NC(=O)C1(C)CSCC(=O)N1CCOc1ccccc1 (stereo not given)	–	inactive: -11.3%
COc1ccccc1N(C)S(=O)(=O)c1ccc(C(=O)Nc2cccc(S(=O)(=O)N3CCOCC3)c2)cc1	inconclusive: 20.6 µM [cytotoxic, single point]	–
CNc1c(C(=O)O)ccc2c1C(=O)c1ccccc1C2=O	inconclusive: 29.1 µM [cytotoxic, single point]	–
COc1cc(CCN2C(=O)c3cccc4cccc(c34)C2=O)c(S(=O)(=O)NCCO)cc1OC	inconclusive: 23.1 µM [rising, partial curve, poor fit]	–
N=c1c2c(n(Cc3ccc(Br)cc3)c3c1CCC3)CCCC2	active: 0.651 µM	–
Cc1ccc(/C=C2\SC(=S)N(CCCC(=O)Nc3nccs3)C2=O)cc1	inconclusive: 0.0073 µM [rising, full curve]	–
Cc1ccc(C(=O)Nc2nnc(-c3ccco3)o2)cc1	inconclusive: 23.1 µM [cytotoxic, partial curve, poor fit]	–
COc1ccc(Cl)cc1NC(=O)CSc1nc(-c2cccs2)cc(C(F)(F)F)n1	–	inactive: -13.2%
NC(COCc1ccccc1)c1csc(NC(=O)Nc2cccc(Cl)c2)n1 (stereo not given)	–	inactive: 0%
Cc1ccc(Cl)cc1N1CCN(C(=O)c2sc3nc4n(c(=O)c3c2C)CCC4)CC1	–	inactive: 11.5%
Cc1ccc(NC(=O)c2ccc(CN3CCc4ccccc4C3)cc2)cc1	–	inactive: -11.2%
O=C(Nc1cccc(F)c1)c1ccc(S(=O)(=O)N2CCCC2)cc1	inconclusive: 20.6 µM [cytotoxic, single point]	–
COc1ccccc1C(=O)Nc1ccc(OCC(=O)N2CC(C)CC(C)C2)cc1 (stereo not given)	–	inactive: 1.84%
Nc1[nH]c2cc([N+](=O)[O-])ccc2c1-c1ccccn1	inconclusive: 29.1 µM [cytotoxic, single point]	–
CC(=O)Nc1sc(C)c(C)c1C(=O)OCC(=O)N(CC(C)C)C1CCS(=O)(=O)C1 (stereo not given)	inconclusive: 2.59 µM [cytotoxic, full curve, poor fit]	–

Structure (SMILES)	Potency	activity change, negative = cytotoxic
O=C1C2C3c4ccccc4C(c4ccccc43)C2C(=O)N1c1cccc2cccnc12 (stereo not given)	inconclusive: 29.1 µM [cytotoxic, partial curve, poor fit]	–
C=CCNC(=O)C1CC1(c1cccc(C)c1)c1cccc(C)c1 (stereo not given)	–	inactive: 2.72%
S=C1NC[C@H](Cc2ccccc2)N1CC1CCN(CCCCc2ccccc2)CC1	–	inactive: 23.8%
COc1ccc(/C=N/NC(=O)c2ccc(Br)o2)cc1Cn1cc([N+](=O)[O-])cn1	inconclusive: 11.6 µM [rising, partial curve, poor fit]	–
Cc1ccc(-n2nnc3c(=O)n(CC(=O)NCc4ccccc4)cnc32)cc1	inconclusive: 20.6 µM [cytotoxic, single point]	–
Cc1ccc(CSc2nc3ccc(NC(=O)CC(C)C)cc3s2)cc1	inconclusive: 18.4 µM [cytotoxic, single point]	–
CC(=O)c1c(C)oc2ccc(N(C(=O)C3CCCCC3)S(=O)(=O)c3cc([N+](=O)[O-])ccc3C)cc12	inconclusive: 23.1 µM [cytotoxic, single point]	–
COc1cc2c(cc1OC)C(=O)C(Br)CC2 (stereo not given)	inconclusive: 29.1 µM [cytotoxic, single point]	–
CSc1ccc(CCNC(=O)c2c(C)nn(-c3ccc(F)cc3)c2-n2cccc2)cc1	active: 3.26 µM	–
O=C(NCc1ccc(Cl)cc1)C1CCN(S(=O)(=O)c2ccc(F)cc2)CC1	inactive	–
CCOC(=O)/C(C(N)=NCCCO)=C(/O)c1ccccc1	–	inactive: 11.8%
CCOc1ccc(Cc2c(Cl)nc(N)nc2Cl)cc1	inconclusive: 20.6 µM [cytotoxic, partial curve, poor fit]	–
COc1ccc(C2CC(O)(c3ccccc3)Oc3c(C)ccc(C)c32)cc1 (stereo not given)	inconclusive: 25.9 µM [cytotoxic, single point]	–
Cc1cccn2c(=O)c3cc(C(=O)N4c5ccccc5CC4C)n(C)c3nc12 (stereo not given)	inconclusive: 29.1 µM [cytotoxic, single point]	–
COc1cccc(/C=N\NC(C)=O)c1OC/C=C/c1ccccc1	inconclusive: 29.1 µM [cytotoxic, single point]	–
C/C=C(/C)C(=O)O[C@@H]1c2c(ccc3ccc(=O)oc23)O[C@@H]1C(C)(C)OC(=O)/C(C)=C\C	inconclusive: 29.1 µM [cytotoxic, single point]	–
CNC(=O)c1cc2cccc(OC)c2oc1=O	–	inactive: -8.51%
Oc1c(C(c2ccccc2)N2CCN(Cc3ccccc3)CC2)sc2ncnn12 (stereo not given)	–	inactive: 0%
Cn1ncc(Cl)c1C(=O)NCc1ccc(Cl)cc1	inconclusive: 23.1 µM [cytotoxic, single point]	–
O=C(O)CSCC(=O)N1CCN(c2cc(C(F)(F)F)nc3ccccc23)CC1	–	inconclusive: -1.9%
Cc1cc(CNC(=O)COc2ccc([N+](=O)[O-])cc2)c2ccccc2n1	inconclusive: 25.9 µM [cytotoxic, single point]	–
CC1CC(C)CN(Cc2nc(N)nc(Nc3ccc4ccccc4c3)n2)C1 (stereo not given)	active: 11.6 µM	–
CC1(C)CC2CC(C)(CN2c2ncnc3ccc(Br)cc23)C1 (stereo not given)	inconclusive: 20.6 µM [cytotoxic, single point]	–
CCOCCCn1c(SCC(=O)Nc2ccc(F)cc2)nc2c(sc3ccccc32)c1=O	–	inactive: 19.3%

Structure (SMILES)	Potency	activity change, negative = cytotoxic
O=C(CCN1C(=O)/C(=C\c2ccccc2Cl)SC1=S)N1CCN(c2ccccc2)CC1	inconclusive: 18.4 µM [cytotoxic, partial curve]	–
COc1ccc(NC(=O)c2ccc(NC(=O)CN3CCN(c4ccc(O)cc4)CC3)cc2)cc1	inconclusive: 29.1 µM [cytotoxic, single point]	–
COC(=O)c1c(NC(=O)CN2CCN(c3ncccn3)CC2)sc(C(N)=O)c1C	inconclusive: 29.1 µM [cytotoxic, single point]	–
COc1ccc(C(=O)N2CCN(CCNC(=O)C(=O)Nc3ccc(Br)cc3)CC2)cc1	inconclusive: 32.6 µM [cytotoxic, single point]	–
Cc1cccc(C)c1OCC(=O)Nc1ccc2c(c1)OCCO2	active: 23.1 µM	–
CC(CNS(=O)(=O)c1ccc2c(c1)NC(=O)CCS2)c1ccccc1 (stereo not given)	inconclusive: 20.6 µM [cytotoxic, single point]	–
CCN(CC)c1ccccc1/C=C/[n+]1ccc(CCCCI)c2ccccc21	active: 3.66 µM	–
Cc1ccccc1CNC(=O)CN1CCSc2ccccc21	–	inactive: -2.34%
Cc1ccccc1OCC(=O)N/N=C/c1ccc(Sc2nc3ccccc3s2)o1	inconclusive: 29.1 µM [cytotoxic, single point]	–
COc1ccc(/C=N/NC(=O)c2nnn(-c3nonc3N)c2CN(C)c2ccccc2)cc1	–	inconclusive: -54.7%
CC(C)(C)c1csc(NC(=O)c2ccc(Cl)s2)n1	inconclusive: 16.4 µM [cytotoxic, single point]	–
Cn1c(SCc2cccc(Br)c2)nnc1-c1ccncc1	–	inactive: 3.46%
OCCN1CCN(c2nc(N3CCCCC3)nc(N3CCCCC3)n2)CC1	inconclusive: 29.1 µM [cytotoxic, single point]	–
CCn1c(=O)c(C(=O)Nc2ccc(C)cc2)c(O)c2ccccc21	–	inactive: -12%
Cc1ccn2c(c1)nc(=O)c1cc(S(=O)(=O)N3CCOCC3)ccc12	inconclusive: 29.1 µM [rising, single point]	–
Nc1nc2nc(-c3cccs3)cc(C(F)(F)F)n2n1	–	inactive: 0%
Fc1ccc(CNc2nc(-c3ccc(Cl)cc3)cc(C(F)(F)F)n2)cc1	–	inconclusive: -0.0856%
C[C@@H]1CC=C[C@@H]2[C@H]1C(=O)N(Cc1ccccc1)[C@H]2c1ccccc1Br	inconclusive: 13 µM [cytotoxic, single point]	–
COCCCNC(=O)CSc1nc2cc(S(=O)(=O)N3CCCCC3)ccc2o1	–	inconclusive: -30.4% [cytotoxic]
CCc1cccc(C)c1NC(=O)CSc1nnc(-c2cc3cc(Br)ccc3o2)n1CC	inconclusive: 29.1 µM [cytotoxic, single point]	–
COc1cc(C(=O)Nc2oc(-c3ccccc3)c(-c3ccccc3)c2C#N)cc(OC)c1OC	inconclusive: 29.1 µM [cytotoxic, single point]	–
O=C1CS/C(=N/N=C/c2c[nH]c3ccccc23)N1	–	inactive: 14.9%

Structural class, those above containing a cyano group
Structure (SMILES)	Potency	activity change, negative = cytotoxic
N#Cc1ccc(CN2CCN(C(=O)CC(NC(=O)c3ccccc3)c3ccccc3)CC2)cc1 (stereo not given)	–	inconclusive: 27.5%
COc1cc(C(=O)Nc2oc(-c3ccccc3)c(-c3ccccc3)c2C#N)cc(OC)c1OC	inconclusive: 29.1 µM [cytotoxic, single point]	–

Reprinted at random: three compounds from above
Structure (SMILES)	Potency	activity change, negative = cytotoxic
Cc1ccn2c(c1)nc(=O)c1cc(S(=O)(=O)N3CCOCC3)ccc12	inconclusive: 29.1 µM [rising, single point]	–
OCCN1CCN(c2nc(N3CCCCC3)nc(N3CCCCC3)n2)CC1	inconclusive: 29.1 µM [cytotoxic, single point]	–
Cn1ncc(Cl)c1C(=O)NCc1ccc(Cl)cc1	inconclusive: 23.1 µM [cytotoxic, single point]	–
